From article PMC9932112
Results are given in words; binding and its absence hold for the method and conditions named. In cells and extracts the contact can be indirect. Some results given as binding are weak or reduced against the parent protein; the word gives no strength. Tags and fused reporters may be left off the sequences shown.

Tests used:
Recombinant GST-OGT = target: T1, Recombinant GST-OGT (UniProt O15294); experiment: pull-down; recombinant GST-OGT incubated with extracts of cells transfected with Flag-PLK1; GST pull-down; only the target purified
T1 sequence: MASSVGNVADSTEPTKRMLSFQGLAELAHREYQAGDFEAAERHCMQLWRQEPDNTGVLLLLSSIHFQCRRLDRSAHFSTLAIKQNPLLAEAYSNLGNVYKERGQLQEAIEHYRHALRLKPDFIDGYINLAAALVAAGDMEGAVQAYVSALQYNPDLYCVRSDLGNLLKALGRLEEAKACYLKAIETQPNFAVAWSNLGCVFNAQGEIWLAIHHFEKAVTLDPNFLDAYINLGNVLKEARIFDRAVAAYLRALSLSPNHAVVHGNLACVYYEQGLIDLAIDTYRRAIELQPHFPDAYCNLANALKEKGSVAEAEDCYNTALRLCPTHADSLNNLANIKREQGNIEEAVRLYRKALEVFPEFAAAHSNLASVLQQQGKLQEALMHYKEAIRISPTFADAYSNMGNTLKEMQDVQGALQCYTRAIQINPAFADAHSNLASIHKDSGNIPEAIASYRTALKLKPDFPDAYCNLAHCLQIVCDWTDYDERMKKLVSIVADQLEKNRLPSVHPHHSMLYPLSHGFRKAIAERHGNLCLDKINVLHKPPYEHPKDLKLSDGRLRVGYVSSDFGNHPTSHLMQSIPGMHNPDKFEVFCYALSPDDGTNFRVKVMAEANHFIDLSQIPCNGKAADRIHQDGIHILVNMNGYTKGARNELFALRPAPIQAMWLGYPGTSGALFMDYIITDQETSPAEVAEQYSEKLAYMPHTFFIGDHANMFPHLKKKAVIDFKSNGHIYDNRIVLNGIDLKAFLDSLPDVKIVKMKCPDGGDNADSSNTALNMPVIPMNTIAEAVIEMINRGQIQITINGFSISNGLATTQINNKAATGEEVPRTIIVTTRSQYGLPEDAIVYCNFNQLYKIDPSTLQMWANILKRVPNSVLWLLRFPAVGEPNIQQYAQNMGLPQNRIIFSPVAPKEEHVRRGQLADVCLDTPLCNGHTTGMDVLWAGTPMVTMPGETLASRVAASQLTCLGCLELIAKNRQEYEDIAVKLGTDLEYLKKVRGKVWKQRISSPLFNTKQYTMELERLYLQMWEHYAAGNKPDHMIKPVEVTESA

Myc-OGT = target: T2, Myc-OGT (UniProt O15294); experiment: co-IP; overproduced proteins; cells transfected with Flag-Plk1 and Myc-OGT plasmids, lysates immunoprecipitated with anti-Myc antibodies, immunoblotted with anti-Flag antibodies
T2 sequence: T1 sequence

[1] = target: T3, O-linked β-N-acetylglucosamine (O-GlcNAc) transferase (OGT), endogenous (human (endogenous in HeLa)) (UniProt O15294); experiment: co-IP; endogenous proteins; cell extracts immunoprecipitated with anti-OGT antibodies, immunoblotted with anti-PLK1 antibodies
T3 sequence: T1 sequence

| binding (Recombinant GST-OGT) | binding (Myc-OGT) | binding [1] | Substance |
| --- | --- | --- | --- |
| binds | binds | – | Flag-PLK1 (from UniProt P53350 1-603) |
| – | – | binds | polo-like kinase 1 (PLK1), endogenous (from UniProt P53350 1-603) |
